{
  "sequences": {"note": "The chains behind the UniProt entries cited, without tags or fusion partners.", "UniProt P10844": "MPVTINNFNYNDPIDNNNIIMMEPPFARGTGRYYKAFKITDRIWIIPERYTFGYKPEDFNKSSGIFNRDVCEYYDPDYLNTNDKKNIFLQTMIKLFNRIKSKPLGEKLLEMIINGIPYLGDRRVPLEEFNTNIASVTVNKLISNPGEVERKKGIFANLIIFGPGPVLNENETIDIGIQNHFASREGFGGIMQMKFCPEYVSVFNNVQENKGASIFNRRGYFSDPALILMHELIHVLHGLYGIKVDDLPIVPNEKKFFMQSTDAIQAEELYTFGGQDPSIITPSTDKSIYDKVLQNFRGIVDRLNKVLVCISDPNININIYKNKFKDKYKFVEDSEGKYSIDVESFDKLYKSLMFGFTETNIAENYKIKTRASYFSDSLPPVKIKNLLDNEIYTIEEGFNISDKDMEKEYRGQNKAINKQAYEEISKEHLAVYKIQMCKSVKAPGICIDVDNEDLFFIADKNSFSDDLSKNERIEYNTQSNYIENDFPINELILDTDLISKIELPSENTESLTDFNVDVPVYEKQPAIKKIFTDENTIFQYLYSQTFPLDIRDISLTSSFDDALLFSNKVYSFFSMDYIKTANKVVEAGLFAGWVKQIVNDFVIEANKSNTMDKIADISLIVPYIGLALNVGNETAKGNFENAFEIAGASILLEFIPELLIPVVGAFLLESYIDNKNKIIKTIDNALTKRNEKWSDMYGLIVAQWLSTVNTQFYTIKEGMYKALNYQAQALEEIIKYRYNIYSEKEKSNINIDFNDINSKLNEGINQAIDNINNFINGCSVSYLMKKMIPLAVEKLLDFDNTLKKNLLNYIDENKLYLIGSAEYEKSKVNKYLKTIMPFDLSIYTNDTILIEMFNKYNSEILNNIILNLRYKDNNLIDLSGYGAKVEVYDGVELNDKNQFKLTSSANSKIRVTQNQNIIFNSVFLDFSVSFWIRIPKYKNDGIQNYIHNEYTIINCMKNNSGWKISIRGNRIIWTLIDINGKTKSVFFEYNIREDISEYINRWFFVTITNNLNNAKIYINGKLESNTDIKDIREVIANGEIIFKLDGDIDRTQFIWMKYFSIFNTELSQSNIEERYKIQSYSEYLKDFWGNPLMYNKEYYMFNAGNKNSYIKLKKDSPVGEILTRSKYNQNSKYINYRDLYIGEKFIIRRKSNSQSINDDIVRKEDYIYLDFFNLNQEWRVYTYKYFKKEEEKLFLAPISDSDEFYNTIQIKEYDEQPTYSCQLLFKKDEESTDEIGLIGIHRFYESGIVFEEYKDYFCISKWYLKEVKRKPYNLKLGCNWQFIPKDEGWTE"},
  "source": "paper PMC5086636",
  "about": "(Toxins, 2016)",
  "target": "Syt-II_(40-60) peptide (amino acid residues 40-60 of the mouse synaptotagmin protein) (mouse)",
  "experiment": "ELISA; only the target purified",
  "note": "Results are given in words; binding and its absence hold for the method and conditions named. Some binding calls cover weakened binding; strength is not graded here.",
  "data": [
    {"substance": "Botulinum neurotoxin type B (from UniProt P10844 1-1291)", "values": [
      {"measurement": "binding", "value": "binds"}
    ]}
  ]
}
